The supplement of paper PMC12823440, “Inhibitors supercharge kinase turnover through native proteolytic circuits” (Nature, 2025)
Where a name gives a salt, the structure may show the parent alone. The list shows a part of the results. Hit calls seldom repeat between salt and free forms of one compound.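 In K562 cells expressing nanoluciferase-fused kinases, luminescence was recorded at 4 h intervals between 2 and 18 h, normalized as percent of control with DMSO at 100% and a positive control at 0%. A significant (2 sigma) signal drop marks a time point as decreased. The authors' rule for a hit is not shown and takes in more than the number of time points.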

Sequences of proteins named here, by UniProt entry; tags and fusion partners are left off. A change or cut given only in a name is not applied to a line headed by its entry.
UniProt Q9UQM7, whole entry: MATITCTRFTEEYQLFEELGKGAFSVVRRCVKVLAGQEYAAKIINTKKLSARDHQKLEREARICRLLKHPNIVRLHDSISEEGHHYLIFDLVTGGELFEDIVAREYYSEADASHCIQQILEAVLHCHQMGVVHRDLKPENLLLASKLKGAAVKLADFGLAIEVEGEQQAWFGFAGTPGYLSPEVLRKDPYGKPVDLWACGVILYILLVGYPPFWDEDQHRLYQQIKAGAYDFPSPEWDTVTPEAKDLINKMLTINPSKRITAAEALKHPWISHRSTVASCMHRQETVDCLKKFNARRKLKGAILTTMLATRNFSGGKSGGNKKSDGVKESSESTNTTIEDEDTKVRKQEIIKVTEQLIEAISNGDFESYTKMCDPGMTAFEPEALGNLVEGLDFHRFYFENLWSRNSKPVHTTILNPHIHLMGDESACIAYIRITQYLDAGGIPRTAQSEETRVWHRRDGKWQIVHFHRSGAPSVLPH
UniProt Q13555: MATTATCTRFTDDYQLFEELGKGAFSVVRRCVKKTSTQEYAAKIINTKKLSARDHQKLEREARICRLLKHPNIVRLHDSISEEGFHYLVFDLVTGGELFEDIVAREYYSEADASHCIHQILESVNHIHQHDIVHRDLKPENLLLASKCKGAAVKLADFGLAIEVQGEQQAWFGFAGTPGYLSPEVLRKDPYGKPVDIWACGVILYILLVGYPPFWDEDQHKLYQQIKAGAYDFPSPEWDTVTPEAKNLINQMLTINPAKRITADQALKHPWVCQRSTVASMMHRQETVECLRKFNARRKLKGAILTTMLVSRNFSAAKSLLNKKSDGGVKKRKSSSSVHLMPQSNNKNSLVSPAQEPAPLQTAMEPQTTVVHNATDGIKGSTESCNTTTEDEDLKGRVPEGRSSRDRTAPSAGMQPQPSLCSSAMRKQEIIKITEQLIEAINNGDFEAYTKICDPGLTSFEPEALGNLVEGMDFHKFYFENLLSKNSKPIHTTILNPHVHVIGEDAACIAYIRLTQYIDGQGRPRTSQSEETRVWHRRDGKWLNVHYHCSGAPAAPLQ
UniProt Q00526: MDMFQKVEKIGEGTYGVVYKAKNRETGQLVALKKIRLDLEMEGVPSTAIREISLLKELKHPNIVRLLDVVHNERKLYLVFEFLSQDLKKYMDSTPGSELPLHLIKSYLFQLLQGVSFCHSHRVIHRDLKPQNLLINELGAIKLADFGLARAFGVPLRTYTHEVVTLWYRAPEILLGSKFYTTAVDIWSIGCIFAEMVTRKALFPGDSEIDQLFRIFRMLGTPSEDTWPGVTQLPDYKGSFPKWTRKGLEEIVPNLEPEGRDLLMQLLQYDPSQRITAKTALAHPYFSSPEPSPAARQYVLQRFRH
UniProt P11802: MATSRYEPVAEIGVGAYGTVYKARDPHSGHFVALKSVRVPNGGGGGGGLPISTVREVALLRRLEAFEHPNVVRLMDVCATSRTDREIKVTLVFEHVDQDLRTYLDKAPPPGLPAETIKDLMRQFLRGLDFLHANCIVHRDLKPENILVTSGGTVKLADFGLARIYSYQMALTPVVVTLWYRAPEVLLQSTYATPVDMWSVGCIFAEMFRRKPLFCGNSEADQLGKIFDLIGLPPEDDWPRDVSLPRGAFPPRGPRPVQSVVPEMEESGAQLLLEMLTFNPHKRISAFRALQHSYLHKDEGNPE
UniProt Q00534, whole entry: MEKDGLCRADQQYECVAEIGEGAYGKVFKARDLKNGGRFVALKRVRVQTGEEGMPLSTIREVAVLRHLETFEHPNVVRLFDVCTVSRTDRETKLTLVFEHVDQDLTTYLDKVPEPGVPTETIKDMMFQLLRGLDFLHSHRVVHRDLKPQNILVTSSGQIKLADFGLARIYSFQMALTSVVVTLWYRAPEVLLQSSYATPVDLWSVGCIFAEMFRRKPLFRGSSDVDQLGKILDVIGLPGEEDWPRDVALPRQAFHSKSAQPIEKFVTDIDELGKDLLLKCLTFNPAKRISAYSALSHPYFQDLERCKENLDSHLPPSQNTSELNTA
UniProt P50613: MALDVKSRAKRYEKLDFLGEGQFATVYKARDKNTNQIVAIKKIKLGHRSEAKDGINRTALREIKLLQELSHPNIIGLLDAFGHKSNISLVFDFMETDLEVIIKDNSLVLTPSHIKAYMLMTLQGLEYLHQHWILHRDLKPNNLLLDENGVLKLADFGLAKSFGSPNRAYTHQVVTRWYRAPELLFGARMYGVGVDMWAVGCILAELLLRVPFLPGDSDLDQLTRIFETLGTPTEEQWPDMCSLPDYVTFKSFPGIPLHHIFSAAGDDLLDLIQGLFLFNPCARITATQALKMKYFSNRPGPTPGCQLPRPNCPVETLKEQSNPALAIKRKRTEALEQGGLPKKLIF
UniProt P50750, whole entry: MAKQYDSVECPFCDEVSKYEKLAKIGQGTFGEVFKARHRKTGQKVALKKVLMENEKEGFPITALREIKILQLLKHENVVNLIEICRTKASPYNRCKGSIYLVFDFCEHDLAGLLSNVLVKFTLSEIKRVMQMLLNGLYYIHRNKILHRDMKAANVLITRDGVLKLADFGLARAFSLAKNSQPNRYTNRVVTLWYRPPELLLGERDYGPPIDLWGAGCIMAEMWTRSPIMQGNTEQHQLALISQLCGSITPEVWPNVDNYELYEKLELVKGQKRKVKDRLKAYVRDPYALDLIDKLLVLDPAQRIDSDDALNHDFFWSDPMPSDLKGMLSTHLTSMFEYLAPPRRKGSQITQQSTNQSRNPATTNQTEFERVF
UniProt O96017, whole entry: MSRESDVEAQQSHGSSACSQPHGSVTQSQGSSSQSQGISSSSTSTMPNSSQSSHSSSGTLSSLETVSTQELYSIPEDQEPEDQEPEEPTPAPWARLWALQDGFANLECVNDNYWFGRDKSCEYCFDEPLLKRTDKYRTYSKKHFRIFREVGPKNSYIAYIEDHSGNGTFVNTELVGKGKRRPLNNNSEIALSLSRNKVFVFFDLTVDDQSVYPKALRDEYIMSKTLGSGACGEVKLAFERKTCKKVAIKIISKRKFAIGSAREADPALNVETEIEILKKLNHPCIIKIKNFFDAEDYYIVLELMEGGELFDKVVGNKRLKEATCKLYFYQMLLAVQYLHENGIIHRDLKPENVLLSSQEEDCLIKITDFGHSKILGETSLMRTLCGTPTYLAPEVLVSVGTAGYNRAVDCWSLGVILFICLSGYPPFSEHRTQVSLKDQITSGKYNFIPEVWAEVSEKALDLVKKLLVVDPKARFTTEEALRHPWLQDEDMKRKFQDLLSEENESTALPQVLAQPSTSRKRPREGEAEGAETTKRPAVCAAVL
UniProt P41240: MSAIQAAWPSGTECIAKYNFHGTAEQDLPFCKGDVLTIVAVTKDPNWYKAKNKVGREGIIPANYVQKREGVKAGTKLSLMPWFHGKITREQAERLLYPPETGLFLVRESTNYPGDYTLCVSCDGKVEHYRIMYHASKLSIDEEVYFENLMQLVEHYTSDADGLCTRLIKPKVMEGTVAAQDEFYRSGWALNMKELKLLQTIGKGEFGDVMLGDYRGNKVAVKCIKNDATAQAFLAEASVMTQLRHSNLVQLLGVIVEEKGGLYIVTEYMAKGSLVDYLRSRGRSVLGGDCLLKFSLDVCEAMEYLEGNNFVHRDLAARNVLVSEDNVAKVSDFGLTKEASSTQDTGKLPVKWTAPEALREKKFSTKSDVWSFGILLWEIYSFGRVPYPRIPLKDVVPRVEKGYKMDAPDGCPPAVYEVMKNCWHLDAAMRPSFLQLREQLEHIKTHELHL
UniProt P48729: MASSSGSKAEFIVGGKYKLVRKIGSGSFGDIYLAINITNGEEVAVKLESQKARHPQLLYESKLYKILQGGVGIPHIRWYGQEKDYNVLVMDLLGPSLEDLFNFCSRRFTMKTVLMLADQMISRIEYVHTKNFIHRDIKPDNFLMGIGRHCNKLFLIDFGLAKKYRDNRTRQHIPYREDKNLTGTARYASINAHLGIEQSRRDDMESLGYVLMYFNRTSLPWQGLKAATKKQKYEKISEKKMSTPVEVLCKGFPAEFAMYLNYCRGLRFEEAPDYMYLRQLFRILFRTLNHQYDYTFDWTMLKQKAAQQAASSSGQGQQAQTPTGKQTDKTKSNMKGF
UniProt P48730: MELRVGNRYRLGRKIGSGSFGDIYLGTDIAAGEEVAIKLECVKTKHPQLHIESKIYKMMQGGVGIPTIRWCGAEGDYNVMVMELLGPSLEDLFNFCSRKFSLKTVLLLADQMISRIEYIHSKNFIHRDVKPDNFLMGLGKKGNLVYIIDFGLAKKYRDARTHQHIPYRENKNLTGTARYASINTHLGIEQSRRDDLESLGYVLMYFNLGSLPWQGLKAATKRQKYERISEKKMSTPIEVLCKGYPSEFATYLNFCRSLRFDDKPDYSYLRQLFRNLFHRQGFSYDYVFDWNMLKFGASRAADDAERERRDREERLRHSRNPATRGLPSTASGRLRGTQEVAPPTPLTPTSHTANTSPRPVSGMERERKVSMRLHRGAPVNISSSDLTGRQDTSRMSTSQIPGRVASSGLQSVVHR
UniProt Q08345: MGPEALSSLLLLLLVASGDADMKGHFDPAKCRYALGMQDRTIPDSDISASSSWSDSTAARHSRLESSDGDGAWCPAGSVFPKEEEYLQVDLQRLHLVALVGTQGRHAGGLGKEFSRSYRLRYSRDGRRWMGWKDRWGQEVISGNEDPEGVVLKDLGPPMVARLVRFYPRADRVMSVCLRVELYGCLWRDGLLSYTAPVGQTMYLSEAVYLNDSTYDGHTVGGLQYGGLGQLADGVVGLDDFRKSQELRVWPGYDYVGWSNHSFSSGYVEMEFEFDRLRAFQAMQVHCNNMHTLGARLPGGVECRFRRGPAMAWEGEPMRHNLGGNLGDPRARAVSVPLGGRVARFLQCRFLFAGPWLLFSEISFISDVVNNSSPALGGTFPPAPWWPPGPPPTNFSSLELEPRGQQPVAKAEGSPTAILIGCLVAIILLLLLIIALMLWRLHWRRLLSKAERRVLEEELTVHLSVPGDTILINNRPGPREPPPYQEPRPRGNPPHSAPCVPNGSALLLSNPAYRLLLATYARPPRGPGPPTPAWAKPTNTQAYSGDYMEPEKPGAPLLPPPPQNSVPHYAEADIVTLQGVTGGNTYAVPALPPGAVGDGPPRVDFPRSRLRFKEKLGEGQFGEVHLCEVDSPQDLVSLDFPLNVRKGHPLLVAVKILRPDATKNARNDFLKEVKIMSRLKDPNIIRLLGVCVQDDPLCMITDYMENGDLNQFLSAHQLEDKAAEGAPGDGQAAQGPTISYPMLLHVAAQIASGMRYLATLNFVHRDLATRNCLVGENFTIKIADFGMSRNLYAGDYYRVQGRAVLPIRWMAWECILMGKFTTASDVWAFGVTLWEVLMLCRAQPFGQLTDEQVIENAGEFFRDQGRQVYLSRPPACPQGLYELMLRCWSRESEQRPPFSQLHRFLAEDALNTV
UniProt Q9Y463, whole entry, looked up: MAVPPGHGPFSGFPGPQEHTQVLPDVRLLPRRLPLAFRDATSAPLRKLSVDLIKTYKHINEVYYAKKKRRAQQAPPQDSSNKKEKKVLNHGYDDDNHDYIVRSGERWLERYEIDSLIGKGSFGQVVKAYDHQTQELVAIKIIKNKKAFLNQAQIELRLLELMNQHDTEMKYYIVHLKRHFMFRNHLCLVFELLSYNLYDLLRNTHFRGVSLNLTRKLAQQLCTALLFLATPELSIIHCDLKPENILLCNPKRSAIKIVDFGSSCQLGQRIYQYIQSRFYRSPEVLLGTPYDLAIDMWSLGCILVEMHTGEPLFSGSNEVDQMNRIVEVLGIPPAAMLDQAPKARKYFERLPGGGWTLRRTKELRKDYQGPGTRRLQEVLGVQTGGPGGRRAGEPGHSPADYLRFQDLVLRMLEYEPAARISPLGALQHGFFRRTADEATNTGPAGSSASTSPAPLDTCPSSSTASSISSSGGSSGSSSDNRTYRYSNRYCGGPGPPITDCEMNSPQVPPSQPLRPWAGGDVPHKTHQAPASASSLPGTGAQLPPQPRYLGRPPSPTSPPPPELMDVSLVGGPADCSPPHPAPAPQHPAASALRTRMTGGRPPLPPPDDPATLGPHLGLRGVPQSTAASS
UniProt Q92630: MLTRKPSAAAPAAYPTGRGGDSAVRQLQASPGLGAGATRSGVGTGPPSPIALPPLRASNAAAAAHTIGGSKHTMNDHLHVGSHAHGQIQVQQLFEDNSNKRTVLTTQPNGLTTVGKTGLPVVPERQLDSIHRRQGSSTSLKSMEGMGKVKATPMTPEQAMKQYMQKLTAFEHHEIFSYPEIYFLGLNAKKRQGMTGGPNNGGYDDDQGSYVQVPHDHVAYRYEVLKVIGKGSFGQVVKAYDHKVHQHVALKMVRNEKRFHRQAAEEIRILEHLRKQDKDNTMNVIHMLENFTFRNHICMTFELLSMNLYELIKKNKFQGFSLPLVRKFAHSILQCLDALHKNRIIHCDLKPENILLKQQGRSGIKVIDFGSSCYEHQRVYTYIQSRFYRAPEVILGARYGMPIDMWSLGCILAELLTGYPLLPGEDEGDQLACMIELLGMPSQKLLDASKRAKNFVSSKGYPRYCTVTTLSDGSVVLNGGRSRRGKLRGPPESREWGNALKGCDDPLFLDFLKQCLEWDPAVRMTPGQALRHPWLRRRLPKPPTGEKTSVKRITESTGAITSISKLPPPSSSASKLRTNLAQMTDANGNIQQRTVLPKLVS

Key:
Experiment in all cases: kinase-Nluc reporter destabilization hit call (1 = scored as downregulated) (binary); higher = compound decreases kinase abundance
Settings in all cases: K562; 2-18 h
BRAF_V600E = test system: BRAF_V600E
BTK = BTK (UniProt Q06187)
CAMK2A = CAMK2A (UniProt Q9UQM7)
CAMK2G = CAMK2G (UniProt Q13555)
CDK10 = CDK10 (UniProt Q15131)
CDK2 = CDK2 (UniProt P24941)
CDK3 = CDK3 (UniProt Q00526)
CDK4 = CDK4 (UniProt P11802)
CDK5 = CDK5 (UniProt Q00535)
CDK6 = CDK6 (UniProt Q00534)
CDK7 = CDK7 (UniProt P50613)
CDK9 = CDK9 (UniProt P50750)
CHEK2 = CHEK2 (UniProt O96017)
CSF1R = CSF1R (UniProt P07333)
CSK = CSK (UniProt P41240)
CSNK1A1 = CSNK1A1 (UniProt P48729)
CSNK1D = CSNK1D (UniProt P48730)
DDR1 = DDR1 (UniProt Q08345)
DYRK1B = DYRK1B (UniProt Q9Y463)
DYRK2 = DYRK2 (UniProt Q92630)

Measured: kinase-Nluc reporter destabilization hit call

O=C(N/N=C/c1coc2ccccc2c1=O)c1cccnc1 (10 µM)
inactive: BRAF_V600E 0 | BTK 0 | CAMK2A 0 | CAMK2G 0 | CDK10 = 0 | CDK2 = 0 | CDK3 = 0 | CDK4 = 0 | CDK5 = 0 | CDK6 = 0 | CDK7 = 0 | CDK9 = 0 | CHEK2 = 0 | CSF1R 0 | CSK 0 | CSNK1A1 = 0 | CSNK1D 0 | DDR1 = 0 | DYRK1B 0 | DYRK2 = 0

COc1cc2ncnc(Nc3ccc(Cl)cc3F)c2cc1OC (10 µM)
inactive: BRAF_V600E 0 | BTK 0 | CAMK2A 0 | CAMK2G 0 | CDK10 = 0 | CDK2 = 0 | CDK3 = 0 | CDK4 = 0 | CDK5 = 0 | CDK6 = 0 | CDK7 = 0 | CDK9 = 0 | CHEK2 = 0 | CSF1R 0 | CSK 0 | CSNK1A1 = 0 | CSNK1D 0 | DDR1 = 0 | DYRK1B 0 | DYRK2 = 0

Cc1ccc(OCCSc2ncccn2)c(Br)c1 [ZLN024 (hydrochloride)] (10 µM)
inactive: BRAF_V600E 0 | BTK 0 | CAMK2A 0 | CAMK2G 0 | CDK10 = 0 | CDK2 = 0 | CDK3 = 0 | CDK4 = 0 | CDK5 = 0 | CDK6 = 0 | CDK7 = 0 | CDK9 = 0 | CHEK2 = 0 | CSF1R 0 | CSK 0 | CSNK1A1 = 0 | CSNK1D 0 | DDR1 = 0 | DYRK1B 0 | DYRK2 = 0

C[C@@H]1CC[C@@H](Nc2nc(NC(C)(C)C)ncc2C(N)=O)C[C@H]1O (10 µM)
inactive: BRAF_V600E 0 | BTK 0 | CAMK2A 0 | CAMK2G 0 | CDK10 = 0 | CDK2 = 0 | CDK3 = 0 | CDK4 = 0 | CDK5 = 0 | CDK6 = 0 | CDK7 = 0 | CDK9 = 0 | CHEK2 = 0 | CSF1R 0 | CSK 0 | CSNK1A1 = 0 | CSNK1D 0 | DDR1 = 0 | DYRK1B 0 | DYRK2 = 0

CCN1CCC(n2cc(CNc3cc(Cl)c4ncc(C#N)c(Nc5ccc(F)c(Cl)c5)c4c3)nn2)CC1 [Cot inhibitor-2] (2.5 µM)
inactive: BRAF_V600E 0 | BTK 0 | CAMK2A 0 | CAMK2G 0 | CDK10 = 0 | CDK2 = 0 | CDK3 = 0 | CDK4 = 0 | CDK5 = 0 | CDK6 = 0 | CDK7 = 0 | CDK9 = 0 | CHEK2 = 0 | CSF1R 0 | CSK 0 | CSNK1A1 = 0 | CSNK1D 0 | DDR1 = 0 | DYRK1B 0 | DYRK2 = 0

Cc1ccc(CNc2ncnc3ccc(-c4ccc(CO)o4)cc23)o1 (10 µM)
inactive: BRAF_V600E 0 | BTK 0 | CAMK2A 0 | CAMK2G 0 | CDK10 = 0 | CDK2 = 0 | CDK3 = 0 | CDK4 = 0 | CDK5 = 0 | CDK6 = 0 | CDK7 = 0 | CDK9 = 0 | CHEK2 = 0 | CSF1R 0 | CSK 0 | CSNK1A1 = 0 | CSNK1D 0 | DDR1 = 0 | DYRK1B 0 | DYRK2 = 0

Cc1ccc2cc(-c3c(C)ccc(C(=O)c4c(-c5ccccc5)n(C)n(-c5ccccc5)c4=O)c3N)ccc2n1 (2.5 µM)
inactive: BRAF_V600E 0 | BTK 0 | CAMK2A 0 | CAMK2G 0 | CDK10 = 0 | CDK2 = 0 | CDK3 = 0 | CDK4 = 0 | CDK5 = 0 | CDK6 = 0 | CDK7 = 0 | CDK9 = 0 | CHEK2 = 0 | CSF1R 0 | CSK 0 | CSNK1A1 = 0 | CSNK1D 0 | DDR1 = 0 | DYRK1B 0 | DYRK2 = 0

FC(F)(F)c1ccc(CNc2ccc(Cc3c[nH]c4ncccc34)cn2)cc1 (10 µM)
inactive: BRAF_V600E 0 | BTK 0 | CAMK2A 0 | CAMK2G 0 | CDK10 = 0 | CDK2 = 0 | CDK3 = 0 | CDK4 = 0 | CDK5 = 0 | CDK6 = 0 | CDK7 = 0 | CDK9 = 0 | CHEK2 = 0 | CSF1R 0 | CSK 0 | CSNK1A1 = 0 | CSNK1D 0 | DDR1 = 0 | DYRK1B 0 | DYRK2 = 0

S=C(SSC(=S)N1CCOCC1)N1CCOCC1 (10 µM)
inactive: BRAF_V600E 0 | BTK 0 | CAMK2A 0 | CAMK2G 0 | CDK10 = 0 | CDK2 = 0 | CDK3 = 0 | CDK4 = 0 | CDK5 = 0 | CDK6 = 0 | CDK7 = 0 | CDK9 = 0 | CHEK2 = 0 | CSF1R 0 | CSK 0 | CSNK1A1 = 0 | CSNK1D 0 | DDR1 = 0 | DYRK1B 0 | DYRK2 = 0

O=c1cc(CN2CCOCC2)occ1OCCCCCSc1ccnc2cc(C(F)(F)F)ccc12 (10 µM)
inactive: BRAF_V600E 0 | BTK 0 | CAMK2A 0 | CAMK2G 0 | CDK10 = 0 | CDK2 = 0 | CDK3 = 0 | CDK4 = 0 | CDK5 = 0 | CDK6 = 0 | CDK7 = 0 | CDK9 = 0 | CHEK2 = 0 | CSF1R 0 | CSK 0 | CSNK1A1 = 0 | CSNK1D 0 | DDR1 = 0 | DYRK1B 0 | DYRK2 = 0

CN1C(=O)N[C@H](Cc2c[nH]c3c(Cl)cccc23)C1=O [Necrostatin 2] (10 µM)
inactive: BRAF_V600E 0 | BTK 0 | CAMK2A 0 | CAMK2G 0 | CDK10 = 0 | CDK2 = 0 | CDK3 = 0 | CDK4 = 0 | CDK5 = 0 | CDK6 = 0 | CDK7 = 0 | CDK9 = 0 | CHEK2 = 0 | CSF1R 0 | CSK 0 | CSNK1A1 = 0 | CSNK1D 0 | DDR1 = 0 | DYRK1B 0 | DYRK2 = 0

O=C([O-])c1cc2ccccc2c(Cc2c(O)c(C(=O)[O-])cc3ccccc23)c1O.[Na+].[Na+] [Pamoic acid (disodium)] (10 µM)
inactive: BRAF_V600E 0 | BTK 0 | CAMK2A 0 | CAMK2G 0 | CDK10 = 0 | CDK2 = 0 | CDK3 = 0 | CDK4 = 0 | CDK5 = 0 | CDK6 = 0 | CDK7 = 0 | CDK9 = 0 | CHEK2 = 0 | CSF1R 0 | CSK 0 | CSNK1A1 = 0 | CSNK1D 0 | DDR1 = 0 | DYRK1B 0 | DYRK2 = 0

COc1ccc(OC)c(C2C(C#N)=C(N)Oc3n[nH]c(-c4ccc5ccccc5c4)c32)c1 (stereo not given) (10 µM)
inactive: BRAF_V600E 0 | BTK 0 | CAMK2A 0 | CAMK2G 0 | CDK10 = 0 | CDK2 = 0 | CDK3 = 0 | CDK4 = 0 | CDK5 = 0 | CDK6 = 0 | CDK7 = 0 | CDK9 = 0 | CHEK2 = 0 | CSF1R 0 | CSK 0 | CSNK1A1 = 0 | CSNK1D 0 | DDR1 = 0 | DYRK1B 0 | DYRK2 = 0

COc1cc(Nc2ncc(F)c(Nc3ccc4c(n3)NC(=O)C(C)(C)O4)n2)cc(OC)c1OC (10 µM)
inactive: BRAF_V600E 0 | BTK 0 | CAMK2A 0 | CAMK2G 0 | CDK10 = 0 | CDK3 = 0 | CDK4 = 0 | CDK5 = 0 | CDK6 = 0 | CDK7 = 0 | CDK9 = 0 | CHEK2 = 0 | CSF1R 0 | CSK 0 | CSNK1A1 = 0 | CSNK1D 0 | DDR1 = 0 | DYRK1B 0 | DYRK2 = 0
active: CDK2 = 1

Cc1cccc(-c2[nH]ncc2-c2ccc(F)c(-c3cnn(CCO)c3)c2)n1 (10 µM)
inactive: BRAF_V600E 0 | BTK 0 | CAMK2A 0 | CAMK2G 0 | CDK10 = 0 | CDK2 = 0 | CDK3 = 0 | CDK4 = 0 | CDK5 = 0 | CDK6 = 0 | CDK7 = 0 | CDK9 = 0 | CHEK2 = 0 | CSF1R 0 | CSK 0 | CSNK1A1 = 0 | CSNK1D 0 | DDR1 = 0 | DYRK1B 0 | DYRK2 = 0

C=CC(=O)Nc1cc(C)ccc1Nc1nc(Nc2cc(OC)ncc2C)ncc1C(F)(F)F (10 µM)
inactive: BRAF_V600E 0 | BTK 0 | CAMK2A 0 | CAMK2G 0 | CDK10 = 0 | CDK2 = 0 | CDK3 = 0 | CDK4 = 0 | CDK5 = 0 | CDK6 = 0 | CDK7 = 0 | CDK9 = 0 | CHEK2 = 0 | CSF1R 0 | CSK 0 | CSNK1A1 = 0 | CSNK1D 0 | DDR1 = 0 | DYRK1B 0 | DYRK2 = 0

CNC(=O)c1c(F)cccc1Nc1nc(Nc2cc3c(cc2OC)CCN3C(=O)CN(C)C)nc2[nH]ccc12 (10 µM)
inactive: BRAF_V600E 0 | BTK 0 | CAMK2A 0 | CAMK2G 0 | CDK10 = 0 | CDK2 = 0 | CDK3 = 0 | CDK4 = 0 | CDK5 = 0 | CDK6 = 0 | CDK7 = 0 | CDK9 = 0 | CHEK2 = 0 | CSF1R 0 | CSK 0 | CSNK1A1 = 0 | CSNK1D 0 | DDR1 = 0 | DYRK1B 0 | DYRK2 = 0

Random excerpt: 2 records from the list, in no set order.
COc1cc(Nc2ncc(F)c(Nc3ccc4c(n3)NC(=O)C(C)(C)O4)n2)cc(OC)c1OC (10 µM)
inactive: BRAF_V600E 0 | BTK 0 | CAMK2A 0 | CAMK2G 0 | CDK10 = 0 | CDK3 = 0 | CDK4 = 0 | CDK5 = 0 | CDK6 = 0 | CDK7 = 0 | CDK9 = 0 | CHEK2 = 0 | CSF1R 0 | CSK 0 | CSNK1A1 = 0 | CSNK1D 0 | DDR1 = 0 | DYRK1B 0 | DYRK2 = 0
active: CDK2 = 1

Cc1cccc(-c2[nH]ncc2-c2ccc(F)c(-c3cnn(CCO)c3)c2)n1 (10 µM)
inactive: BRAF_V600E 0 | BTK 0 | CAMK2A 0 | CAMK2G 0 | CDK10 = 0 | CDK2 = 0 | CDK3 = 0 | CDK4 = 0 | CDK5 = 0 | CDK6 = 0 | CDK7 = 0 | CDK9 = 0 | CHEK2 = 0 | CSF1R 0 | CSK 0 | CSNK1A1 = 0 | CSNK1D 0 | DDR1 = 0 | DYRK1B 0 | DYRK2 = 0

(further entries)

FC(F)c1nc2ccccc2n1-c1nc(N2CCOCC2)nc(N2CCOCC2)n1 (2 µM)
inactive: BRAF_V600E 0 | BTK 0 | CAMK2A 0 | CAMK2G 0 | CDK10 = 0 | CDK2 = 0 | CDK3 = 0 | CDK4 = 0 | CDK5 = 0 | CDK6 = 0 | CDK7 = 0 | CDK9 = 0 | CHEK2 = 0 | CSF1R 0 | CSK 0 | CSNK1A1 = 0 | CSNK1D 0 | DDR1 = 0 | DYRK1B 0 | DYRK2 = 0
